Data published in paper PMC4337721.
No constants are given. Whether binding was seen depends on the method and setting. Some results given as binding are weak or reduced against the parent protein; the word gives no strength.

Sequences of proteins named here, by UniProt entry; tags and fusion partners are left off. A change or cut given only in a name is not applied to a line headed by its entry. A line that says so, or that is headed by a name, gives the form on record, which may keep a tag or linker. Residues count along the entry.
UniProt P11021: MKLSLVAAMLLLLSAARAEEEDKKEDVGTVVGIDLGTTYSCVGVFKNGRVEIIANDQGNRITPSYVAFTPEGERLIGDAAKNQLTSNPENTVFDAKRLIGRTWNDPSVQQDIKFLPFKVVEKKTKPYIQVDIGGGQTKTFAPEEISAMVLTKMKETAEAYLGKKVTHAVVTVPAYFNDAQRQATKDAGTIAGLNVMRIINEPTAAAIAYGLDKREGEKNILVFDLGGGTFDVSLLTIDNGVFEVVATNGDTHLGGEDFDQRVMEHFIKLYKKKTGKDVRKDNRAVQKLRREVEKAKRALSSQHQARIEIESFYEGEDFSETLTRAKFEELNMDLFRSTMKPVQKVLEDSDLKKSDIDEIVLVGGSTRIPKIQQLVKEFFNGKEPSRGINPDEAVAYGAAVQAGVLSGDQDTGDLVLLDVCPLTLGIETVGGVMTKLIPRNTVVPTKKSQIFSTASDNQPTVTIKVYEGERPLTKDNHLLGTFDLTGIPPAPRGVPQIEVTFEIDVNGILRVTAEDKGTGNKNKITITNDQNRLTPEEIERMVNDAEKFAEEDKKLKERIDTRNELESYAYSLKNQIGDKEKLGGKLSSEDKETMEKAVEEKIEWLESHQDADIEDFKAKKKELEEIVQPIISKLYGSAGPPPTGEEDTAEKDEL
His6-tagged full-length BiP (residues 28–654): residues 28-654 of P11021
BiP substrate binding domain (residues 422–654), His6-tag removed: residues 422-654 of P11021
UniProt Q9NZJ5, residues 54-509: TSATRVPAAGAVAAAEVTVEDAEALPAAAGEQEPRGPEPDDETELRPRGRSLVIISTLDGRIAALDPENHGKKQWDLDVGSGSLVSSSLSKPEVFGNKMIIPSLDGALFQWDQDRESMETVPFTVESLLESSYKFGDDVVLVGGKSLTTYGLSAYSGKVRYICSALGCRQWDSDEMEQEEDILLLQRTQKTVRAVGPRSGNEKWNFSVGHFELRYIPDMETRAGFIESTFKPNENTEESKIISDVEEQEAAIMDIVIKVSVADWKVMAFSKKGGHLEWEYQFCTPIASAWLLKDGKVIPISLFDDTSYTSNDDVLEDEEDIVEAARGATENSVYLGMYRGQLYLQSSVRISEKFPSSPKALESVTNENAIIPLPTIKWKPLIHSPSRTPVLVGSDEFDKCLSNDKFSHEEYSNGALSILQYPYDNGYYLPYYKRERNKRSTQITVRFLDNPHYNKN

Tests used:
[1] = molecular target: His6-tagged BiP substrate binding domain (residues 422–654) (human) (UniProt P11021); test: pull-down; His6-tagged BiP protein (25 μM) held on TALON resin, untagged Ire1 LD, Perk LD or CH1 at 500 μM added, 1 hr RT, buffer B; SDS-PAGE, coomassie; both purified
[2] = molecular target: His6-tagged full-length BiP (residues 28–654) (human) (UniProt P11021); test: as above
[3] = molecular target: His6-tagged BiP ATPase domain (residues 28–405) (human) (UniProt P11021); test: as above
[4] = molecular target: full-length BiP (BiP FL, residues 28–654), His6-tag removed (human) (UniProt P11021); test: MST; as a1, buffer B with 10 mM ATP, ADP or AMPPNP, 10 mM MgCl2 and 30 mM KCl; 25°C; both purified
[5] = molecular target: His6-tagged full-length BiP (residues 28–654) (human) (UniProt P11021); test: pull-down; both purified
[6] = molecular target: BiP substrate binding domain (residues 422–654), His6-tag removed (human) (UniProt P11021); test: MST; Monolith NT.115; buffer B (50 mM HEPES pH 7.5, 75 mM NaCl, 10% glycerol, 1 mM TCEP), no nucleotide; one partner labelled (Red-NHS) at 50 nM, sixteen twofold dilutions of the unlabelled partner (which was labelled is not told); 25°C; three independent experiments averaged; both purified
[7] = molecular target: His6-tagged full-length BiP (residues 28–654) (human) (UniProt P11021); test: pull-down; competition pull-down: His6-tagged full-length BiP on TALON resin; CH1 (500 μM) added to the BiP-luminal domain complex, or BiP first incubated with CH1 and luminal domains then added; buffer B, RT; both purified
[8] = molecular target: His6-tagged full-length BiP (residues 28–654) (human) (UniProt P11021); test: condition: only BiP first incubated with CH1 (500 μM); pull-down; competition pull-down: His6-tagged full-length BiP on TALON resin; CH1 (500 μM) added to the BiP-luminal domain complex, or BiP first incubated with CH1 and luminal domains then added; buffer B, RT; both purified
[9] = molecular target: His6-tagged BiP ATPase domain (residues 28–405) (human) (UniProt P11021); test: cross-linking; EGS, 50-fold molar excess, 1 hr; proteins at 50 μM in 50 mM Hepes pH 8.0, 50 mM NaCl, 5% glycerol, 5 mM DTT; alone or in 1:1 molar mixture; SDS-PAGE and anti-His6 blot; both purified

Substance	binding [1]	binding [2]	binding [3]	binding [4]	binding [5]	binding [6]	binding [7]	binding [8]	binding [9]
Perk luminal domain, complete (region I–V, residues 54–509) (from UniProt Q9NZJ5 54-509) (domain or fragment)	no binding (tested: 500 μM)	binds	binds	binds	binds	no binding	binds	no binding	–
His6-tagged BiP ATPase domain (residues 28–405) (from UniProt P11021 28-405) (domain or fragment)	–	–	–	–	–	–	–	–	no binding (tested: 50 μM)
